Results are given in words; binding and its absence hold for the method and conditions named. For some of these results: In cells and extracts the contact can be indirect. Some entries that bind do so weakly or less than the wild type. For some of these results: Where a sequence is shown, tags or fusion partners need not be part of it.
Assays:
[1] = molecular target: T1, MORT-1 protein (full-length) (human); experiment: yeast two-hybrid
T1 sequence: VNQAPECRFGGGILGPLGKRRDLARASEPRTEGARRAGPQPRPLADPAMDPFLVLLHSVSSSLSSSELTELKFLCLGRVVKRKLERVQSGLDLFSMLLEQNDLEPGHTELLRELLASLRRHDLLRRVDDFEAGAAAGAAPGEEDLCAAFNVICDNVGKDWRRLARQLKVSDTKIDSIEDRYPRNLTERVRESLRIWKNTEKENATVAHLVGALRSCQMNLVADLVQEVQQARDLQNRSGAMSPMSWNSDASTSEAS

By UniProt entry, the sequences of proteins in these tests, tags left out. Where a name states a change or a piece, a line headed by the entry shows the natural chain unless it says otherwise.
UniProt Q14790: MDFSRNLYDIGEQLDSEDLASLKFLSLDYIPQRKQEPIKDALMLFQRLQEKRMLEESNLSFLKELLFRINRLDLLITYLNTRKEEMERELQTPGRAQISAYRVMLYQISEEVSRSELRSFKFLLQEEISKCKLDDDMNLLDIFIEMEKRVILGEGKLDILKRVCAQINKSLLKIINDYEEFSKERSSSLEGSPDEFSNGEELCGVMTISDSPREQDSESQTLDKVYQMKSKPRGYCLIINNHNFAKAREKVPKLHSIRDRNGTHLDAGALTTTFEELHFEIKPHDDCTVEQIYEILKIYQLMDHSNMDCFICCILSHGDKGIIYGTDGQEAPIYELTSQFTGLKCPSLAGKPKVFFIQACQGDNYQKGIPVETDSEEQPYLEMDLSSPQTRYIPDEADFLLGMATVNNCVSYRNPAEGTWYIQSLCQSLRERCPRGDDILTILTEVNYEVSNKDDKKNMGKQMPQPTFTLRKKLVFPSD

[2] = molecular target: T2, MORT1 fused at its N terminus to the HA epitope (human); experiment: co-immunoprecipitation of 35S-labelled FLAG- and HA-tagged proteins from HeLa cells, SDS-PAGE and autoradiography
T2 sequence: T1 sequence

[3] = molecular target: T1, MORT-1 protein (full-length) (human); experiment: co-immunoprecipitation from 293-EBNA cell lysates

Row | binding [1] | binding [2] | binding [3] | Substance
1 | binds |  |  | MACHα1 (from UniProt Q14790 1-479) (enzyme)
2 |  | binds |  | MACHα1 fused at its N-terminus to the FLAG octapeptide (from UniProt Q14790 1-479) (enzyme)
3 | binds |  | binds | MACHα1 mutant in which the catalytic cysteine Cys360 is replaced by Ser (from UniProt Q14790 1-479) (enzyme)

Source: US20070154905A1
